Experimental data reported in patent publication EP4724480A2.
No constants are given. Whether binding was seen depends on the method and setting. Some binding calls cover weakened binding; strength is not graded here.

Sequences of proteins named here, by UniProt entry; tags and fusion partners are left off. Residues count along the entry.
UniProt P14778, residues 18-332: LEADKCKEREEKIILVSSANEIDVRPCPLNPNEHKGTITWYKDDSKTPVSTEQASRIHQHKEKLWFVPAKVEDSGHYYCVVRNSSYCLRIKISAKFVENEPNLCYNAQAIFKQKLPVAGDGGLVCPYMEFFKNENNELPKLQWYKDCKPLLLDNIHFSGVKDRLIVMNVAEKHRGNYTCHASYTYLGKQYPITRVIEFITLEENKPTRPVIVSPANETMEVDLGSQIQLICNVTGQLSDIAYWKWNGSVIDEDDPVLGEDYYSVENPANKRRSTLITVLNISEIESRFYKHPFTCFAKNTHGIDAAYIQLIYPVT

Molecular target: human IL1R1 (human) (UniProt P14778)
Assay: ELISA, IL1R1 protein (1 µM) coated, anti-Avi Tag detection, OD450

binding: binds
B1: G2-VHH (VHH)
VHH: QVQLVESGGGLVQPGGSLRLSCAASGFTMGDYAIGWFRQVPGKEREGLSYSTKNGIKAYADSVRDRFTISRENAKNTVYLQMNSLKPEDTAVYYCAASTRFGGLLVSRYDYWGQGTQVTVSS
